Our source for the log2 fold change values is the supplement of paper PMC10849652.

Amino acid sequences for entries named in this document (tags omitted). A change or cut given only in a name is not applied to a line headed by its entry.
UniProt Q9NRX1: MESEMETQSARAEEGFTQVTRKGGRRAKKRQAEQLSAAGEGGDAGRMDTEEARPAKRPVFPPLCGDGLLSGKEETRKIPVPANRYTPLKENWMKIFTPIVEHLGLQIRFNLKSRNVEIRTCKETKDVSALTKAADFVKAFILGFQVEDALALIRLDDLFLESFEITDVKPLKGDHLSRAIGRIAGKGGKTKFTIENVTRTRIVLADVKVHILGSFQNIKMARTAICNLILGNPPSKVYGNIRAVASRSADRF
UniProt Q02809: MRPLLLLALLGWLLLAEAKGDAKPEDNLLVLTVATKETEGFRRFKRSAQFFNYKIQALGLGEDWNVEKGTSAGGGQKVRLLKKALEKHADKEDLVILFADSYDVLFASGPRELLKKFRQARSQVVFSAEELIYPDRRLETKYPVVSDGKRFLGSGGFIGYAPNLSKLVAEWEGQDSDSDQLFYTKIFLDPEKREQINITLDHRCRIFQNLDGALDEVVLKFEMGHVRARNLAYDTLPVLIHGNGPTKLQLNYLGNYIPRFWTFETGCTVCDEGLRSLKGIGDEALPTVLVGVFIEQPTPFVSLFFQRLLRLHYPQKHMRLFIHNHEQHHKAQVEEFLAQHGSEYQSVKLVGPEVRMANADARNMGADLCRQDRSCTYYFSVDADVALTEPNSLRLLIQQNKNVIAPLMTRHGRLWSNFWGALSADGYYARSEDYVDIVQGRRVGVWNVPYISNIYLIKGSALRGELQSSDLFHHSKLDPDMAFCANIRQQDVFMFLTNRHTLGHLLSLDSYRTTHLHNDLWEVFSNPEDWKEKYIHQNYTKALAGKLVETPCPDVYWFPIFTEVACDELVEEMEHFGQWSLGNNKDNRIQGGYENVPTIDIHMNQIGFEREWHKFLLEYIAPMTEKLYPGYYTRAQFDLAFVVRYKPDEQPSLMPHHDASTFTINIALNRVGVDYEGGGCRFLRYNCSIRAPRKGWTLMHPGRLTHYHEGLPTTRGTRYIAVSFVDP
UniProt Q9HAB8: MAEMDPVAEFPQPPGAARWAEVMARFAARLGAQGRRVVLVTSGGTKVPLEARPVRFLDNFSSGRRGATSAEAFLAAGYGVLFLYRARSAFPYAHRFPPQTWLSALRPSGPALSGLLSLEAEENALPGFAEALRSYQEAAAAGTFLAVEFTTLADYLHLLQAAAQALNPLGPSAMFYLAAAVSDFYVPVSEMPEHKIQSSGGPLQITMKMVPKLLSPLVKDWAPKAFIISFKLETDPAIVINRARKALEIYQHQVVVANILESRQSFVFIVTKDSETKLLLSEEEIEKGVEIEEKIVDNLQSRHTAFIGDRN
UniProt O15318: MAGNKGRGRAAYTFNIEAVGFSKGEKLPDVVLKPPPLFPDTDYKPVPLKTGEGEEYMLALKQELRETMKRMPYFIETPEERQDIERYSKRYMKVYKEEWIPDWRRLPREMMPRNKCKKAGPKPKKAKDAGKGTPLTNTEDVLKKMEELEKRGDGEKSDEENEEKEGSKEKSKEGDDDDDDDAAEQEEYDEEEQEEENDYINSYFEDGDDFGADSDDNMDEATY
UniProt P53350, whole entry, looked up: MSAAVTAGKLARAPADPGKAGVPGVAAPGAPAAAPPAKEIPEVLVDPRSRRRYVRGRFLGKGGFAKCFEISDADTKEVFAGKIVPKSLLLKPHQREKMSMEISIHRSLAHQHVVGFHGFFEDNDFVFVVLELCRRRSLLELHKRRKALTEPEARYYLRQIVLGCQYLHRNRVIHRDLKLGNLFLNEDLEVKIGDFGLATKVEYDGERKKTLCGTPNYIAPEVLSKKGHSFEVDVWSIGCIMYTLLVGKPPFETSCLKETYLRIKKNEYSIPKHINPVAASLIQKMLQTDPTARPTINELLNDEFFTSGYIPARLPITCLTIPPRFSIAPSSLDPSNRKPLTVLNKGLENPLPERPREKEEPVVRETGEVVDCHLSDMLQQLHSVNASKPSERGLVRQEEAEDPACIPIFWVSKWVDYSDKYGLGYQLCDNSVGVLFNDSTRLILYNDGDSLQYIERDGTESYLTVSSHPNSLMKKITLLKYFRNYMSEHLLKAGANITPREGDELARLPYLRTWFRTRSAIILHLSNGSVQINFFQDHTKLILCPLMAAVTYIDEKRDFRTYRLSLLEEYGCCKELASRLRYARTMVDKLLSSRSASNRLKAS
UniProt Q9NZ53: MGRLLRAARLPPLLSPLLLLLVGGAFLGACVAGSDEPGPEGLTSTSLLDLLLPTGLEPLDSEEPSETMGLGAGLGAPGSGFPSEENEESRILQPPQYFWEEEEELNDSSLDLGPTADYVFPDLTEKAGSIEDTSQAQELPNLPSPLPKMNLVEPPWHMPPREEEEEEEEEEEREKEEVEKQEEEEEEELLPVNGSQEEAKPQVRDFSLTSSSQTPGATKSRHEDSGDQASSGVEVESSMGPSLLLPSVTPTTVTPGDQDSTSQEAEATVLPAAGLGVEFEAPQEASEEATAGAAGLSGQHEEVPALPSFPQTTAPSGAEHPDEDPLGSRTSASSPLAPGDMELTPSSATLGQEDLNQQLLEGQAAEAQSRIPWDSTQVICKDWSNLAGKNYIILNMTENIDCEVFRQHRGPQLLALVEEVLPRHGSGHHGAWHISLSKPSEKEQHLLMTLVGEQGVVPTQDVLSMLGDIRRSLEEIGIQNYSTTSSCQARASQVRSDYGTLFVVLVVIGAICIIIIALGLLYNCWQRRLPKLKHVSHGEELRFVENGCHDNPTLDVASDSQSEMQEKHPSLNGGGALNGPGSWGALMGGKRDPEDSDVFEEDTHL
UniProt P0CG38, whole entry, looked up: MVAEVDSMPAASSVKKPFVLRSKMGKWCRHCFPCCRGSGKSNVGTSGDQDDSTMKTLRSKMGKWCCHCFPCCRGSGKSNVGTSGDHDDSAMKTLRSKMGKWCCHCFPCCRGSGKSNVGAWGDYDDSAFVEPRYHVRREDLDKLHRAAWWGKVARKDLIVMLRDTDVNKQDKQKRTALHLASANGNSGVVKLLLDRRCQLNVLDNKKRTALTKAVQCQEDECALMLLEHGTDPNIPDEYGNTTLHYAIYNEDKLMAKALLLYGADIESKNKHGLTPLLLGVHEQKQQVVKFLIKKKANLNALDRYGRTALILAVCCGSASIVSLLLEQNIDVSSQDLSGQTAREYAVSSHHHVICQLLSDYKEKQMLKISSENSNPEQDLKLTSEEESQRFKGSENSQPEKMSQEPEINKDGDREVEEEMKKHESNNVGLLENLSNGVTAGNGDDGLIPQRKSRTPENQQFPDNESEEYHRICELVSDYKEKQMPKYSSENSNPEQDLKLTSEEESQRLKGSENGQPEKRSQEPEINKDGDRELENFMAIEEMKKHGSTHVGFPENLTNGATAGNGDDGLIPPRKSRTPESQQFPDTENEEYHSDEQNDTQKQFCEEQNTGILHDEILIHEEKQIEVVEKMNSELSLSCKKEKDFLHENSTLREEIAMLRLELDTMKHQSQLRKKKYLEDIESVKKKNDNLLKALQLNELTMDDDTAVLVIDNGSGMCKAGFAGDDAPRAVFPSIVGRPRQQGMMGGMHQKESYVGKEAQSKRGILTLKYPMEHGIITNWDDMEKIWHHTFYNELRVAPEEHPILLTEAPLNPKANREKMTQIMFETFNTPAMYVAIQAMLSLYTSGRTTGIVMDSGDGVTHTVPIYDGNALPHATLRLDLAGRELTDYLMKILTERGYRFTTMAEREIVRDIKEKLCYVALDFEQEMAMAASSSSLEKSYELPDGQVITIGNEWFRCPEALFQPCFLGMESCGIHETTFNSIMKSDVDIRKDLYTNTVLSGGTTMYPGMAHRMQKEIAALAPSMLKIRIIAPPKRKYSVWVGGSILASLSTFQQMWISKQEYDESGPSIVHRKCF
UniProt Q9UNP9: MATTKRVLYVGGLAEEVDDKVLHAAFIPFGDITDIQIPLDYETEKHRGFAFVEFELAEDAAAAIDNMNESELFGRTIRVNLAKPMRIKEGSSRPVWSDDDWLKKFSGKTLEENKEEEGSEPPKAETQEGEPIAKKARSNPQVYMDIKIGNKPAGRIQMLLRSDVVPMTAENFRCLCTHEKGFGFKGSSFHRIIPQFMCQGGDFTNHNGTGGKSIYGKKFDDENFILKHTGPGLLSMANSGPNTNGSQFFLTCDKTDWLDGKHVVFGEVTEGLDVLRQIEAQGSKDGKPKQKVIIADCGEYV
UniProt O43447: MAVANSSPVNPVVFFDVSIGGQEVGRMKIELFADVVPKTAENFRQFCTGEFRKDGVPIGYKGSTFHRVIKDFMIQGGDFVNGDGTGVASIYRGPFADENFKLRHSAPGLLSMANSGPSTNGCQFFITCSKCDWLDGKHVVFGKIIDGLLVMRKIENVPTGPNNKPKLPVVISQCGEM
UniProt Q15063: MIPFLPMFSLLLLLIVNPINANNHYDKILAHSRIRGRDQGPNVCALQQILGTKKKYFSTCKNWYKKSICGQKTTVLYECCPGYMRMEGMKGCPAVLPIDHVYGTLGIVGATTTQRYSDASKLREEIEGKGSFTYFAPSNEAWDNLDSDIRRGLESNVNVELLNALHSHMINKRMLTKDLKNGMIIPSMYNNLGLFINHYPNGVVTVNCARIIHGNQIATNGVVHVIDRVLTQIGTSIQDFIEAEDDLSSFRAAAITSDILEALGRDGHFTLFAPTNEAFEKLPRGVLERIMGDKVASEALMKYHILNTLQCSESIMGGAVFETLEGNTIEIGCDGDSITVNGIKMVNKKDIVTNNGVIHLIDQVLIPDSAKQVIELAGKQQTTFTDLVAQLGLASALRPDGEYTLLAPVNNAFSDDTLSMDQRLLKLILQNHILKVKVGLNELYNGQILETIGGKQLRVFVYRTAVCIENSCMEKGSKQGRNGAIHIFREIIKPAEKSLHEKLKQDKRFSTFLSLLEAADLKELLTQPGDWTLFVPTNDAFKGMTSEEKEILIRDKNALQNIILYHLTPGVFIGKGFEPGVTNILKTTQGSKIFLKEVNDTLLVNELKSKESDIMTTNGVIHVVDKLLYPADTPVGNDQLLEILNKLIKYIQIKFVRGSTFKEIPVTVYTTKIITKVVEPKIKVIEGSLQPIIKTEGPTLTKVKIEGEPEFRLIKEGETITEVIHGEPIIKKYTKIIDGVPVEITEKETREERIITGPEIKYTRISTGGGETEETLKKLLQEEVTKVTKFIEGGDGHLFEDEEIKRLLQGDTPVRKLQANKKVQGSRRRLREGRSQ
UniProt Q08752, whole entry, looked up: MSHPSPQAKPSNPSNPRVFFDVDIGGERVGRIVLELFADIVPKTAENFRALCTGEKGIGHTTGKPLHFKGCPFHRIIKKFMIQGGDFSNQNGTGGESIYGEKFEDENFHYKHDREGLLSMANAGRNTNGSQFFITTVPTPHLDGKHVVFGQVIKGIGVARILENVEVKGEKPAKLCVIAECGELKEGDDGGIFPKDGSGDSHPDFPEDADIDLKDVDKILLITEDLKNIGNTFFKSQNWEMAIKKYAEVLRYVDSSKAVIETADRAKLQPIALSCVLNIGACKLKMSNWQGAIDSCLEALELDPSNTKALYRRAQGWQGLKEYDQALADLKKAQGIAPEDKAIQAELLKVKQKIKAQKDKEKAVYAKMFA
UniProt Q9Y3C6: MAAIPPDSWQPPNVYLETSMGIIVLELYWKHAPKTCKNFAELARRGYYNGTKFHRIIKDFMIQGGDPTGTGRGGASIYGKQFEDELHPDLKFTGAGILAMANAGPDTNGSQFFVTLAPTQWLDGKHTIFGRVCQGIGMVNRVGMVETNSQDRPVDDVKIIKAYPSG
UniProt Q9Y535: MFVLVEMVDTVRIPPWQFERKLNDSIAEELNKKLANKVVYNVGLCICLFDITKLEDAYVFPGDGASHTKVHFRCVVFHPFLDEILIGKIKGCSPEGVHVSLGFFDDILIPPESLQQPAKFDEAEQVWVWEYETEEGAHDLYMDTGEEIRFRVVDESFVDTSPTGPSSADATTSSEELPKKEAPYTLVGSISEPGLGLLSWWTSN
UniProt P30405: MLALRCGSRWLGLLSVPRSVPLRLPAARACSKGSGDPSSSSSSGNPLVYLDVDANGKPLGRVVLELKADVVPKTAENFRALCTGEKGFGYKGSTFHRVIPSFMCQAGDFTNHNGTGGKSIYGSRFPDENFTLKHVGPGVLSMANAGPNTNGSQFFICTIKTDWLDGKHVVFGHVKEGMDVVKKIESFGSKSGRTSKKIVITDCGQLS
UniProt Q9BUI4: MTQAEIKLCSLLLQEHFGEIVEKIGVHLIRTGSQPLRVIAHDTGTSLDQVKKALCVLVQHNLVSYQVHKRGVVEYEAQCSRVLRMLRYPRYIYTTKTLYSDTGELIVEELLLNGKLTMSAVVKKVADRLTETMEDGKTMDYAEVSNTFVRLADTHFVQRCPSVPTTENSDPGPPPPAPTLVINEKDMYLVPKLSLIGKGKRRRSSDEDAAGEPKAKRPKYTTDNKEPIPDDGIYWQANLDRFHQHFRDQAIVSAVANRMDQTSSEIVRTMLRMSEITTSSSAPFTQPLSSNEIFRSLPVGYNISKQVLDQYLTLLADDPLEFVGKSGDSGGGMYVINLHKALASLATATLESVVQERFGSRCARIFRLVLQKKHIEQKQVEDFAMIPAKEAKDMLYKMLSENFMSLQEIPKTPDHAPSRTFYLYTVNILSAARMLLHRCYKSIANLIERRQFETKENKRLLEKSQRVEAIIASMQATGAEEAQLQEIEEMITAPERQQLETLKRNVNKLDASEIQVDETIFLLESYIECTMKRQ

The other results are listed elsewhere or left out.

Compound in the first assay: CCN(CC)Cc1ccc2cc(COC(=O)Nc3ccc(C(=O)NO)cc3)ccc2c1 [givinostat]
The experiment in a line: log2 fold change, soluble protein after heating vs DMSO (PISA); higher = thermal stabilisation; K562 cells, 10 uM, 30 min; active = over 0.2 and 3.5 SD of the protein, either way, in both replicates (recomputed). In short, it runs like this: (§1)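 K562 cells at 2×10^6 cells/mL were treated with 10 μM compound for 30 min. Aliquots were heated for 3 min across 48°C-58°C, pooled, and extracted in PBS with 0.5% NP-40 at 4°C; soluble protein was the supernatant after 21,000xg for 90 min. Soluble protein was quantified by TMTpro 16plex LC-MS/MS with channel sums equalised, and reported as log2 fold change in thermal stability against DMSO controls, with values from duplicates.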
For the target POLR2A (UniProt P24928), the log2 fold change was inactive: -0.024.
On the same count and under the same terms, the value for POLR2K (UniProt P53803) was inactive: -0.137; that for POLR2F (UniProt P61218) was inactive: -0.025; that for PLSCR1 (UniProt O15162) was inactive: -0.033.
Same read-out and setting: the value for PNO1 (UniProt Q9NRX1) was inactive: 0.131; that for POLR1A (UniProt O95602) was inactive: 0.083.
On to PLOD1 isoform 2 (UniProt Q02809), for which the log2 fold change is inactive: 0.031.
On to PPCS (UniProt Q9HAB8), for which the log2 fold change was inactive: -0.012.
For POLR3G (UniProt O15318), the log2 fold change is inactive: 0.058.
POFUT1 (UniProt Q9H488): the log2 fold change was inactive: -0.009.
On the same count and under the same terms, the value for PLXNA1 (UniProt Q9UIW2) was inactive: -0.014; that for POLR2I (UniProt P36954) was inactive: -0.151.
On the same count and under the same terms, the value for PLEKHF2 (UniProt Q9H8W4) was inactive: 0.036; that for PLK1 (UniProt P53350) was active: -0.314; that for PODXL2 (UniProt Q9NZ53) was inactive: -0.002.
The same measure, in the same setting: the value for PLS3 (UniProt P13797) was inactive: 0.035; that for POTEI (UniProt P0CG38) was inactive: -0.018; that for PPIE (UniProt Q9UNP9) was inactive: 0.007.
As for PPIH (UniProt O43447), the log2 fold change was inactive: 0.014.
For the target POSTN (UniProt Q15063), the log2 fold change was inactive: -0.083.
Still for that read-out and setting: the value for PPID (UniProt Q08752) was inactive: 0.122; that for PNPLA2 (UniProt Q96AD5) was inactive: 0.036.
For the target PPIL1 (UniProt Q9Y3C6), the log2 fold change was inactive: -0.038.
Consider PPFIA2 (UniProt O75334), for which the log2 fold change is inactive: -0.053.
As to PPM1A isoform 3 (UniProt P35813), the log2 fold change was inactive: -0.007.
As for POLR3H (UniProt Q9Y535), the log2 fold change is inactive: 0.109.
Regarding PMM2 (UniProt O15305), the log2 fold change is inactive: 0.015.
Still for that read-out and setting: the value for PPIF (UniProt P30405) was inactive: 0.046; that for PLPBP (UniProt O94903) was inactive: 0.048.
In the case of PMF1 (UniProt Q6P1K2), the log2 fold change is inactive: -0.026.
On to POLR3C (UniProt Q9BUI4), for which the log2 fold change is inactive: -0.027.
Same read-out and setting: the value for POTEF (UniProt A5A3E0) was inactive: -0.029.

Compound in the next assay: CCN(CCCOc1ccc2c(Nc3cc(CC(=O)Nc4cccc(F)c4)[nH]n3)ncnc2c1)CCOP(=O)(O)O [barasertib]
Described as above. An outline of the steps: as §1
Regarding POLR2A (UniProt P24928), the log2 fold change was inactive: 0.024.
In the case of POLR2K (UniProt P53803), the log2 fold change is inactive: 0.023.
The same measure, in the same setting: the value for POLR2F (UniProt P61218) was inactive: -0.085.
Take PLSCR1 (UniProt O15162): the log2 fold change was inactive: -0.104.
In the case of PNO1 (UniProt Q9NRX1), the log2 fold change was inactive: -0.041.
As for POLR1A (UniProt O95602), the log2 fold change is inactive: 0.016.
In the case of PLOD1 isoform 2 (UniProt Q02809), the log2 fold change was inactive: -0.036.
For the target PPCS (UniProt Q9HAB8), the log2 fold change was inactive: 0.051.
The same measure, in the same setting: the value for POLR3G (UniProt O15318) was inactive: 0.038; that for POFUT1 (UniProt Q9H488) was inactive: -0.002; that for PLXNA1 (UniProt Q9UIW2) was inactive: -0.022.
The same measure, in the same setting: the value for POLR2I (UniProt P36954) was inactive: 0.085; that for PLEKHF2 (UniProt Q9H8W4) was inactive: 0.044.
The same measure, in the same setting: the value for PLK1 (UniProt P53350) was inactive: 0.015.
As to PODXL2 (UniProt Q9NZ53), the log2 fold change is inactive: -0.048.
With PLS3 (UniProt P13797), the log2 fold change is inactive: -0.01.
With POTEI (UniProt P0CG38), the log2 fold change is inactive: 0.
Turning to PPIE (UniProt Q9UNP9), the log2 fold change was inactive: 0.047.
On the same count and under the same terms, the value for PPIH (UniProt O43447) was inactive: 0.025; that for POSTN (UniProt Q15063) was inactive: 0.069; that for PPID (UniProt Q08752) was inactive: 0.057.
PNPLA2 (UniProt Q96AD5): the log2 fold change is inactive: -0.092.
Still for that read-out and setting: the value for PPIL1 (UniProt Q9Y3C6) was inactive: 0.033; that for PPFIA2 (UniProt O75334) was inactive: 0.033; that for PPM1A isoform 3 (UniProt P35813) was inactive: 0.074.
Still for that read-out and setting: the value for POLR3H (UniProt Q9Y535) was inactive: 0.06; that for PMM2 (UniProt O15305) was inactive: 0.003; that for PPIF (UniProt P30405) was inactive: 0.005.
For PLPBP (UniProt O94903), the log2 fold change was inactive: 0.027.
Still for that read-out and setting: the value for PMF1 (UniProt Q6P1K2) was inactive: -0.018; that for POLR3C (UniProt Q9BUI4) was inactive: 0.012; that for POTEF (UniProt A5A3E0) was inactive: -0.018.
